Results deposited as PubChem BioAssay AID504784 (Drosophila RNAi Screening Center, 2011).
Screen: 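Search for regulators of lipid droplet storage in oleate-fed fly cells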 (primary screen). System: Drosophila Kc167 embryonic cells. Reagent: long dsRNA against Drosophila genes, about 250 ng dsRNA per well. Timing: 4 days. Conditions: cells fed 400 µM oleic acid bound to BSA. Detection: 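Microscope images give a droplet-to-nucleus area ratio, taken as log and converted to a screen-wide B-score; higher values mean greater lipid storage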. Direction: droplet/nuclear area B-score: higher = more stored lipid (overstorage).
In all, the deposit lists about 17,000 reagents; this is a random part of those that have a named target and a result. 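Each column is one replicate's B-score; the combined score over replicates was not deposited, so single values may mislead.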 Further read-outs or replicates are left out here.

| Gene | DRSC id | droplet/nuclear area B-score, replicate 1 | droplet/nuclear area B-score, replicate 2 |
| --- | --- | --- | --- |
| CG10646 | DRSC09764 | 0.812 | – |
| CG15128 | DRSC06550 | -0.638 | 3.5 |
| cold | DRSC00538 | -0.272 | 0.0418 |
| Pcmt | DRSC12363 | -0.851 | -0.0616 |
| CG7409 | DRSC10842 | -1.91 | -0.988 |
| Nmnat | DRSC14644 | -0.199 | -2.36 |
| CG2111 | DRSC18205 | -3.46 | 0.439 |
| Cipc | DRSC14898 | 0.521 | – |
| Cipc | DRSC14900 | 0.944 | 0.709 |
| Or94a | DRSC16772 | 0.071 | -0.556 |
| Ulp1 | DRSC19339 | -0.825 | -1.16 |
| Ddr | DRSC02150 | 0.489 | 1.25 |
| Ddr | DRSC03229 | 2.08 | -1.18 |
| Ddr | DRSC03230 | -1.16 | 1.63 |
| Ddr | DRSC22818 | -1.28 | -0.382 |
| CG12883 | DRSC14570 | -1.02 | -0.246 |
| CG8654 | DRSC07231 | -1.04 | 0.0937 |
| Naxe | DRSC18251 | 0.813 | 1.16 |
| CG18530 | DRSC15341 | -0.788 | 0.202 |
| Muc14A | DRSC23264 | -1.87 | -1.27 |
| CG14105 | DRSC10107 | -0.511 | -0.401 |
| CG13319 | DRSC06356 | 1.61 | 0.285 |
| sunn | DRSC21659 | 1.87 | -0.392 |
| CG34430 | DRSC06499 | -1.44 | -0.0506 |
| Usp20-33 | DRSC07196 | 0.00377 | -1.26 |
| CG10254 | DRSC14153 | 0.352 | -0.329 |
| Ppr-Y | DRSC20892 | 1.67 | 2.74 |
| WASp | DRSC15032 | -0.854 | -0.298 |
| E(spl)mbeta-HLH | DRSC16697 | -1.45 | -0.688 |
| kn | DRSC05505 | 0.52 | 0.415 |
| kn | DRSC06196 | -0.0282 | 3.32 |
| kn | DRSC07637 | -1.86 | -0.0209 |
| kn | DRSC21533 | 0.387 | -0.123 |
| apn | DRSC15124 | -0.803 | 0.27 |
| CG1138 | DRSC12530 | -0.666 | -0.98 |
| CG34398 | DRSC01052 | -0.365 | -0.17 |
| CG34398 | DRSC02510 | -0.15 | -0.972 |
| CG34398 | DRSC02511 | -0.509 | -1.99 |
| CG34398 | DRSC03228 | -1.16 | -0.592 |
| CG34398 | DRSC23293 | 0.284 | 0.0136 |
| Nepl10 | DRSC07212 | 1 | 1.88 |
| Lime | DRSC06752 | 2.44 | -0.798 |
| CG11672 | DRSC14344 | -1.66 | 0.0517 |
| Tmlh | DRSC15563 | 0.0663 | -0.00807 |
| GstO1 | DRSC10688 | -0.981 | -0.356 |
| CG6179 | DRSC19973 | 3.89 | 4.2 |
| CkIalpha | DRSC20231 | 2.05 | 2.84 |
| CkIalpha | DRSC22609 | 2.23 | – |
| CkIalpha | DRSC23308 | 0.979 | 1.97 |
| Lamtor1 | DRSC10183 | -0.0347 | -0.576 |
| CG31031 (retired record) | DRSC13964 | -1.29 | 0.0554 |
| mTerf3 | DRSC11759 | 1.82 | 0.0209 |
| CG13581 | DRSC04216 | -0.21 | -0.808 |
| CG32564 | DRSC19933 | 0.295 | 1.04 |
| CG7458 | DRSC11829 | -0.238 | 0.998 |
| CG7458 | DRSC21340 | -2.14 | 0.952 |
| CG13060 | DRSC09943 | -0.739 | -0.00354 |
| Apl | DRSC10350 | 2.54 | 0.771 |
| CG3078 | DRSC18531 | 0.219 | 0.685 |
| Sptz | DRSC15758 | -0.038 | -1.84 |
| Cand1 | DRSC01992 | 0.287 | -1.5 |
| CG15771 | DRSC18077 | 3.67 | -0.229 |
| laza | DRSC11661 | 0.186 | -1.25 |
| laza | DRSC23330 | 1.04 | 1.2 |
| CG9447 | DRSC05008 | -0.0225 | 0.383 |
| CG14740 | DRSC14960 | -0.0118 | 10.8 |
| Cdc23 | DRSC02708 | -0.0138 | 0.0993 |
| Seipin | DRSC18654 | 0.506 | 1.15 |
| spz4 | DRSC02410 | 1.93 | 1.2 |
| CG13077 | DRSC02181 | -0.702 | -1.02 |
| fs(1)Ya | DRSC18776 | 3.9 | 1.69 |
| fs(1)Ya | DRSC23058 | -2.02 | -1.17 |
| Atg8a | DRSC18024 | -0.509 | 1.07 |
| BomS4 | DRSC22509 | -1.11 | -0.718 |
| Rfx | DRSC16820 | -0.523 | -0.0355 |
| CG17239 | DRSC00492 | -0.954 | -0.361 |
| Deaf1 | DRSC11143 | -1.78 | -0.648 |
| Deaf1 | DRSC22786 | -0.195 | -0.641 |
| CG5302 (retired record) | DRSC15764 | 0.00134 | 0.461 |
| CG5302 (retired record) | DRSC15765 | -0.809 | 0.239 |
| CG5302 (retired record) | DRSC22671 | -0.455 | -0.366 |
| CG11029 | DRSC02119 | 0.409 | 0.09 |
| CG11309 | DRSC11650 | 1.27 | -0.0118 |

8 entries from above, sorted by “droplet/nuclear area B-score, replicate 2”, descending.
| Gene | DRSC id | droplet/nuclear area B-score, replicate 1 | droplet/nuclear area B-score, replicate 2 |
| --- | --- | --- | --- |
| fs(1)Ya | DRSC18776 | 3.9 | 1.69 |
| spz4 | DRSC02410 | 1.93 | 1.2 |
| Seipin | DRSC18654 | 0.506 | 1.15 |
| Atg8a | DRSC18024 | -0.509 | 1.07 |
| Rfx | DRSC16820 | -0.523 | -0.0355 |
| BomS4 | DRSC22509 | -1.11 | -0.718 |
| CG13077 | DRSC02181 | -0.702 | -1.02 |
| fs(1)Ya | DRSC23058 | -2.02 | -1.17 |
